Several values for one entry are separate records, joined by “and”; a condition that tells them apart may be missing. Equal values may be shown once. The list shows a part of the results. For some of these results: Construct or isoform of the protein are uncertain.
What was measured:
Assay in all cases: protein microarray (ProtoArray v5.0), streptavidin-Alexa Fluor 647
Details in all cases: 3'-biotin; 20 mM Tris (pH 7.5), 5 mM MgCl2, 100 mM KCl, 0.1% Tween-20, A/T-rich and random oligonucleotide blockers; temperature not stated; high values mean tight binding
[1] = test system: HERPUD1 (human)
[2] = test system: HERV-FRD (human)
[3] = test system: HEY1 (human)
[4] = test system: HFE (human)
[5] = test system: HGS (human)
[6] = test system: HIATL2 (human)
[7] = biological target: HINT1 (UniProt P49773)
[8] = test system: HIP1 (human)
[9] = test system: HIP2 (human)
[10] = test system: HIPK4 (human)

Chains of the proteins cited; added tags and fusions are not shown. Lines headed by an entry give the natural chain unless they say otherwise; changes in a name come on top.
UniProt P49773: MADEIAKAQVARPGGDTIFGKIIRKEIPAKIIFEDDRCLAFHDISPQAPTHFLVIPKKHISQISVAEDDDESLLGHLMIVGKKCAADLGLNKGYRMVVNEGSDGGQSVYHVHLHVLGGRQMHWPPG

In the case of “GGGAGGCTGAGGCAGG [G4-1 biotinylated (PQS2)]”, the binding signal [1] is reported as -0.332 z-score and -0.259 z-score, the binding signal [2] is reported as -0.283 z-score and the binding signal [3] is reported as -0.309 z-score. For the same sequence, the binding signal [4] was -0.342 z-score, the binding signal [5] was -0.335 z-score and the binding signal [6] was -0.3 z-score. The binding signal [7] was -0.326 z-score, the binding signal [8] was -0.35 z-score and the binding signal [9] was -0.322 z-score. For the same sequence, the binding signal [10] was -0.253 z-score.

— publication PMC5996148
